In PubChem BioAssay AID504834 (National Center for Advancing Translational Sciences (NCATS), 2011):
Screen size: about 320,000 compounds; about 22,000 (6.9%) were called active. The shares of active, inactive and inconclusive entries below differ from those in the screen. Calls come from the whole dose curve; as a rule, active = well fitted inhibition curve with a large enough effect; inconclusive = small, poorly fitted or top-dose-only effect, or another doubt; inactive = no such curve, though single readings can be large or run the other way. Potencies of inconclusive entries are doubtful fits and often do not repeat.

Experiment: Primary qHTS for delayed death inhibitors of the malarial parasite plastid, 96 hour incubation
Conditions: P. falciparum luciferase reporter growth; series mostly up to 28.7 µM
In short: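 Cell-based qHTS: luciferase-tagged P. falciparum in erythrocytes (2% hematocrit, 0.05% parasitemia final) incubated with compounds for 96 hours, 37 C, 5% CO2; luciferase detection reagent then added and luminescence measured.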
Potency is the fitted concentration of half-maximal effect.

Compound	Potency
CN(C)S(=O)(=O)N(CC(=O)NCCSCc1ccc(Cl)cc1)c1ccccc1	inconclusive: 0.0738 µM [inhibitor, full curve, poor fit]
CC1CCC/C=C/C(=O)c2c(O)cc(O)cc2CC(=O)O1 (configuration not stated)	inactive
CCCN(CCC)S(=O)(=O)c1ccc(C(=O)Nc2nnc(-c3cc(OC)cc(OC)c3)o2)cc1	inconclusive: 18.5 µM [inhibitor, single point]
CC1(C)Oc2ccc3ccc(=O)oc3c2/C(=C/N)C1=O	inactive
COc1ccc(Nc2nc(-c3sc(NC(C)=O)nc3C)cs2)cc1	active: 10.4 µM
CCCCN(CC)CCNC(=O)c1cc2cc3ccc(Cl)cc3nc2o1	inconclusive: 18.5 µM [inhibitor, single point]
O=C(c1ccc(Cn2c(=S)[nH]c3cc4c(cc3c2=O)OCO4)cc1)N1CCN(c2ncccn2)CC1	inconclusive: 11.7 µM [inhibitor, single point]
O=S(=O)(c1cccc2nsnc12)N1CCN(c2ccccc2F)CC1	inconclusive: 9.28 µM [inhibitor, single point]
O=C(C[N+]1(CC#Cc2ccccc2)CCCCC1)c1ccccc1	inconclusive: 18.5 µM [inhibitor, single point]
COCCN(C(=O)COC(=O)C1CC1)c1c(N)n(Cc2ccccc2)c(=O)[nH]c1=O	inactive
COc1ccc(NS(=O)(=O)c2cccc(NC(=O)NCCCl)c2)cc1	inconclusive: 18.5 µM [inhibitor, partial curve, poor fit]
O=C(Nc1nccs1)c1ccccn1	inconclusive: 11.7 µM [inhibitor, partial curve, poor fit]
CCn1c(SCC(=O)O)nnc1-c1ccc(S(=O)(=O)N2CCCC2)cc1	inconclusive: 11.7 µM [inhibitor, partial curve]
CC(=O)Nc1ccc(S(=O)(=O)N2CCN(c3nc(NC4CCCC4)c4ccccc4n3)CC2)cc1	inconclusive: 11.7 µM [inhibitor, single point]
CC(C)(C)n1nc2c(c1NC(=O)c1ccccc1S(=O)(=O)C(F)F)CS(=O)(=O)C2	inconclusive: 2.33 µM [inhibitor, single point]
CC(=O)NCCc1ccc(S(=O)(=O)Nc2ccc(NC(=O)c3ccc(F)cc3)cc2)cc1	inconclusive: 6.57 µM [inhibitor, partial curve]
COc1ccccc1OCCNC(=O)c1cccc(S(=O)(=O)N2CCN(C)CC2)c1	inconclusive: 18.5 µM [inhibitor, single point]
CC(=O)N(CC1CCCO1)C1(C(=O)NC2CCCC2)CCCCC1 (configuration not stated)	active: 10.4 µM
Cc1ccc2cc(CN(CCN3CCOCC3)Cc3nnnn3Cc3ccco3)c(=O)[nH]c2c1C	inconclusive: 9.28 µM [inhibitor, partial curve, poor fit]
CN(C)P(=O)(Nc1cccc2ccccc12)Nc1cccc2ccccc12	inconclusive: 18.5 µM [inhibitor, single point]
COc1ccc(-n2c(NC(=O)c3ccco3)c(C#N)c3nc4ccccc4nc32)cc1	inconclusive: 2.08 µM [inhibitor, partial curve, poor fit]

2 entries drawn at random from the list so far:
Compound	Potency
Cc1ccc2cc(CN(CCN3CCOCC3)Cc3nnnn3Cc3ccco3)c(=O)[nH]c2c1C	inconclusive: 9.28 µM [inhibitor, partial curve, poor fit]
COc1ccc(Nc2nc(-c3sc(NC(C)=O)nc3C)cs2)cc1	active: 10.4 µM

The listing continues.

Compound	Potency
CC1(C)SC(=Nc2ccccc2)N(S(=O)(=O)c2ccccc2)C1=O	inactive
CCOc1ccc(S(=O)(=O)Nc2nc3ccccc3nc2N2CCN(C)CC2)cc1	active: 3.7 µM
COc1cccc(CN(C)C(=O)c2sccc2-c2ccccc2)c1OC	inconclusive: 18.5 µM [inhibitor, single point]
O=C(CSc1nc(-c2ccco2)cc(C(F)(F)F)n1)Nc1ccc(C(=O)N2CCCCC2)cc1	inconclusive: 0.415 µM [inhibitor, full curve, poor fit]
CCC(=O)Nc1ccc(NC(=O)c2ccc3ccccc3c2)cc1	inactive
O=C(N/N=C/c1ccccc1[N+](=O)[O-])c1ccncc1	active: 0.165 µM
Cc1ccc(C)c(N2CCN(C(=O)CCS(=O)(=O)c3ccc4c(c3)oc(=O)n4C)CC2)c1	inconclusive: 18.5 µM [inhibitor, single point]
Cc1ccc(C(=O)N2CCN(Cc3ccc4c(c3)OCO4)CC2)c(Cl)c1	inconclusive: 18.5 µM [inhibitor, single point]
Cc1cc(C)cc(NC(=O)CSc2nc3c(oc4ccccc43)c(=O)n2-c2ccccc2)c1	inconclusive: 14.7 µM [inhibitor, partial curve, poor fit]
Cc1nc(N2CCC(C)CC2)c2c(C)c(C(=O)Nc3cccc(C(F)(F)F)c3)sc2n1	inactive
CC1(C)CC(=O)CC(=Nc2ccc3[nH]c(=O)[nH]c3c2)C1	inconclusive: 0.104 µM [inhibitor, full curve, poor fit]
COc1ccc(C(=O)NCC(=O)NCCc2c[nH]c3ccccc23)cc1OC	inconclusive: 18.5 µM [inhibitor, single point]
CCOc1ccc(NC(=O)CSc2nncc(=O)n2N)cc1	inconclusive: 18.5 µM [inhibitor, single point]
COc1ccc(CCNC(=O)Cc2ccc(OCc3ccccc3)c(OC)c2[N+](=O)[O-])cc1OCc1ccccc1	inconclusive: 10.4 µM [inhibitor, single point]
COc1ccc(C(CNC(=O)c2cccc(NC(=O)c3cccs3)c2)N2CCCC2)cc1 (configuration not stated)	active: 5.86 µM
CC(C(=O)NC1CCCc2ccccc21)N1CCN(c2ccc(F)cc2)CC1 (configuration not stated)	inconclusive: 18.5 µM [inhibitor, single point]
COc1ccc(/C=C2\C(=O)NCC(=O)N2C)cc1	inactive
O=[N+]([O-])c1cccc(S(=O)(=O)Nc2nc3ccccc3nc2Nc2cccc(S(=O)(=O)N3CCCCC3)c2)c1	active: 5.22 µM
CCCCNC(=O)Cc1cc(=O)[nH]c(=O)[nH]1	inactive
O=C(Nc1cccc(OC(=O)c2cccnc2)c1)c1cccnc1	inconclusive: 10.4 µM [inhibitor, single point]
CCOC(=O)c1sc(NC(=S)NC(=O)c2ccccc2Cl)c(C(=O)OCC)c1C	inactive
